Data reported in PMC3248462.
Results are given in words; binding and its absence hold for the method and conditions named. Binding seen in cells or lysates may run through a third protein. Some results given as binding are weak or reduced against the parent protein; the word gives no strength.

By UniProt entry, the sequences of proteins in these tests, tags left out.
UniProt P09626: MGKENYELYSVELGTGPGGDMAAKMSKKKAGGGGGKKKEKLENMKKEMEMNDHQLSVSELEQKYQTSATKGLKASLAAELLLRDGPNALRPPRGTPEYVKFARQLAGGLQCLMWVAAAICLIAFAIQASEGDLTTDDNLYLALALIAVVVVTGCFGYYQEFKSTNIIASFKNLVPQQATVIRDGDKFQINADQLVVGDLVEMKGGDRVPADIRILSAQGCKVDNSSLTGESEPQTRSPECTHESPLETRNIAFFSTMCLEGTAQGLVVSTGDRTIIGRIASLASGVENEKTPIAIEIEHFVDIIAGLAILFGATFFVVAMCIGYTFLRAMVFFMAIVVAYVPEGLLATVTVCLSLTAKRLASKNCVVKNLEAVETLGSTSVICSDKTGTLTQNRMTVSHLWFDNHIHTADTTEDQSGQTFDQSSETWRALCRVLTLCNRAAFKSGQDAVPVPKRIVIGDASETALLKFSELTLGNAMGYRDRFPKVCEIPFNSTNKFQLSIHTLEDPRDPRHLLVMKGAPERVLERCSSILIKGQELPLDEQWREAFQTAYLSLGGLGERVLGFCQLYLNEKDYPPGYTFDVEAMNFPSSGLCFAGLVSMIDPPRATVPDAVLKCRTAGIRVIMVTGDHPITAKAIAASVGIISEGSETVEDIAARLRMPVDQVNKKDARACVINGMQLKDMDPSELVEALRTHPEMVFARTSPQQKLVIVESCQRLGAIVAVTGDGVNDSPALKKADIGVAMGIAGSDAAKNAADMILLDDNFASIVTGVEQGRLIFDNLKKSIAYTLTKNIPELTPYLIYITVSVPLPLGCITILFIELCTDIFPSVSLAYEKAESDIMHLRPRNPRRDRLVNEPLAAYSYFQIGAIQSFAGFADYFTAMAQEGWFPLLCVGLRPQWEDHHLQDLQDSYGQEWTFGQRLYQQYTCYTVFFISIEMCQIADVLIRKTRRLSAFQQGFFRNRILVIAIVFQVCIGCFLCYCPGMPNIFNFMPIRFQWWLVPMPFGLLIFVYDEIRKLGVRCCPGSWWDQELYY

Target: gastric H+,K+-ATPase α-subunit (UniProt P09626)
Experiment: co-IP; data not shown: COS cells expressing H+,K+-ATPase α- and β-subunits and HA-PP2A C-subunit; precipitation with HK9 antibody

- binding: binds
B1: gastric H+,K+-ATPase β-subunit (protein, UniProt P18598 1-294)
chain: MAALQEKKSCSQRMAEFRQYCWNPDTGQMLGRTPARWVWISLYYAAFYVVMTGLFALCIYVLMQTIDPYTPDYQDQLKSPGVTLRPDVYGERGLQISYNISENSSWAGLTHTLHSFLAGYTPASQQDSINCSSEKYFFQETFSAPNHTKFSCKFTADMLQNCSGLVDPSFGFEEGKPCFIIKMNRIVKFLPSNNTAPRVDCTFQDDPQKPRKDIEPLQVQYYPPNGTFSLHYFPYYGKKAQPHYSNPLVAAKFLNVPKNTQVLIVCKIMADHVTFDNPHDPYEGKVEFKLTIQK
